The other results are listed elsewhere or left out. The calls rarely recur for the same compound in another form.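 In K562 cells expressing nanoluciferase-fused kinases, luminescence was recorded at 4 h intervals between 2 and 18 h, normalized as percent of control with DMSO at 100% and a positive control at 0%. A significant (2 sigma) signal drop marks a time point as decreased. The authors' rule for a hit is not shown and takes in more than the number of time points.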
Assays:
Test in all cases: kinase-Nluc reporter destabilization hit call (1 = scored as downregulated) (binary); higher = compound decreases kinase abundance
Conditions in all cases: 2.5 µM; K562; 2-18 h
BRAF_V600E = system: BRAF_V600E
BTK = BTK (UniProt Q06187)
CAMK2A = CAMK2A (UniProt Q9UQM7)
CAMK2G = CAMK2G (UniProt Q13555)
CDK10 = CDK10 (UniProt Q15131)
CDK2 = CDK2 (UniProt P24941)
CDK3 = CDK3 (UniProt Q00526)
CDK4 = CDK4 (UniProt P11802)
CDK5 = CDK5 (UniProt Q00535)
CDK6 = CDK6 (UniProt Q00534)
CDK7 = CDK7 (UniProt P50613)
CDK9 = CDK9 (UniProt P50750)
CHEK2 = CHEK2 (UniProt O96017)
CSF1R = CSF1R (UniProt P07333)
CSK = CSK (UniProt P41240)
CSNK1A1 = CSNK1A1 (UniProt P48729)
CSNK1D = CSNK1D (UniProt P48730)
DDR1 = DDR1 (UniProt Q08345)
DYRK1B = DYRK1B (UniProt Q9Y463)
DYRK2 = DYRK2 (UniProt Q92630)

By UniProt entry, the sequences of proteins in these tests, tags left out. Where a name states a change or a piece, a line headed by the entry shows the natural chain unless it says otherwise.
UniProt Q9UQM7, whole entry: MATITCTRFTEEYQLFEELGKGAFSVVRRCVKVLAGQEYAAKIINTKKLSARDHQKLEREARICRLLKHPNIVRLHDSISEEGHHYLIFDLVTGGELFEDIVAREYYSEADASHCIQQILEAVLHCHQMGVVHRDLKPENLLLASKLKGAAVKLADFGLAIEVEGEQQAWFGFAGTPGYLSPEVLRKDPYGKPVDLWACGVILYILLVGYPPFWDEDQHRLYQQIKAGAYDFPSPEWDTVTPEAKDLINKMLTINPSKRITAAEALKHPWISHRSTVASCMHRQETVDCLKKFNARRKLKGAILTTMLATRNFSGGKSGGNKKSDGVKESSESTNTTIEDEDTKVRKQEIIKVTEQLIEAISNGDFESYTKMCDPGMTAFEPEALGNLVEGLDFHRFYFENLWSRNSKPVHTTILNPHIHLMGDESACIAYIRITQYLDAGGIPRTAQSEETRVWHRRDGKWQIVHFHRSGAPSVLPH
UniProt Q13555: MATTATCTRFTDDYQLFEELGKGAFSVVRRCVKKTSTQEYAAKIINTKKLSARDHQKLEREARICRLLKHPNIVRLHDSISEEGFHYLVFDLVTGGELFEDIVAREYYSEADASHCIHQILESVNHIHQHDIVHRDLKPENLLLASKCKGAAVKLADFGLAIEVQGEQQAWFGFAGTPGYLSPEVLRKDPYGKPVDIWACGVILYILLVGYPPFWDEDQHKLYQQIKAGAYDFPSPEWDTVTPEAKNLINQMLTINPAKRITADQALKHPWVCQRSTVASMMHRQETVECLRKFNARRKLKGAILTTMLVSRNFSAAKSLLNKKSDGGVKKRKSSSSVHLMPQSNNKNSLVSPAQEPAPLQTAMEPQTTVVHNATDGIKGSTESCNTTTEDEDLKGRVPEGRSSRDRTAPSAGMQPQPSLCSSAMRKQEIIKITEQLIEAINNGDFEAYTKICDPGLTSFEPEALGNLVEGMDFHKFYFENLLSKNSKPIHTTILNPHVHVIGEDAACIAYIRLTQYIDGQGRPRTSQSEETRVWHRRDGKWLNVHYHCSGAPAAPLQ
UniProt Q15131: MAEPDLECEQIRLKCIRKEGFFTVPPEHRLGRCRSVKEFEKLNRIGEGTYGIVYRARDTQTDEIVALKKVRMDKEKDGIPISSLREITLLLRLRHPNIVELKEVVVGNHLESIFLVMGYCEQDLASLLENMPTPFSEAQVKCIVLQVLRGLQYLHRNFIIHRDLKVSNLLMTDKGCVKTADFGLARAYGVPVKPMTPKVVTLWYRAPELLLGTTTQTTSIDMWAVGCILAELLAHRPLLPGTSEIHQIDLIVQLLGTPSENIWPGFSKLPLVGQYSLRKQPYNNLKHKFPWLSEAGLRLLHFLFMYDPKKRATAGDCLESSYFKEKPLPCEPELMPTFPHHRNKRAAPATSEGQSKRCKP
UniProt Q00526: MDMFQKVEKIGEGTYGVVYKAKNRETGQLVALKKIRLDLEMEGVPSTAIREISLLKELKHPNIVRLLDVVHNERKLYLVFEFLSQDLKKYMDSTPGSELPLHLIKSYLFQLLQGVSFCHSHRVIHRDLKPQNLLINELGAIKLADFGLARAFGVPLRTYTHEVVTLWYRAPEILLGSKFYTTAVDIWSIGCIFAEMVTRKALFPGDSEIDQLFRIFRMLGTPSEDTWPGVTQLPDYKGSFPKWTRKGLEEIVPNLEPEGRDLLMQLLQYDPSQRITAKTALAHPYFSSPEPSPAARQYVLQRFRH
UniProt P11802: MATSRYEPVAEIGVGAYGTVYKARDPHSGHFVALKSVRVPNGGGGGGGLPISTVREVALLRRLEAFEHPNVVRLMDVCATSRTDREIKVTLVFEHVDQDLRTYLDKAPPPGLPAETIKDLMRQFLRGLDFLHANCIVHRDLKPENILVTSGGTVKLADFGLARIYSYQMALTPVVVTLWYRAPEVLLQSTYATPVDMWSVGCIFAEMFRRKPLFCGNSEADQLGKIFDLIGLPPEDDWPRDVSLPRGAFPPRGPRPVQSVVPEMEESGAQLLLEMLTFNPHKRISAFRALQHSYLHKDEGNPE
UniProt Q00535, whole entry, looked up: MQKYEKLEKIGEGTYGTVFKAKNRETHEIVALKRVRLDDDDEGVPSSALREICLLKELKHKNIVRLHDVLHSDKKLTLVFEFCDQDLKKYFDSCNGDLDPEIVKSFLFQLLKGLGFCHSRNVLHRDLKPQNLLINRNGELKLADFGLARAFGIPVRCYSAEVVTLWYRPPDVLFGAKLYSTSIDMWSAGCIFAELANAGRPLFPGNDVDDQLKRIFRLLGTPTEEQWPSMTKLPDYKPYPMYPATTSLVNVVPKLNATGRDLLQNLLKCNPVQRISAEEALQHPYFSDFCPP
UniProt Q00534, whole entry: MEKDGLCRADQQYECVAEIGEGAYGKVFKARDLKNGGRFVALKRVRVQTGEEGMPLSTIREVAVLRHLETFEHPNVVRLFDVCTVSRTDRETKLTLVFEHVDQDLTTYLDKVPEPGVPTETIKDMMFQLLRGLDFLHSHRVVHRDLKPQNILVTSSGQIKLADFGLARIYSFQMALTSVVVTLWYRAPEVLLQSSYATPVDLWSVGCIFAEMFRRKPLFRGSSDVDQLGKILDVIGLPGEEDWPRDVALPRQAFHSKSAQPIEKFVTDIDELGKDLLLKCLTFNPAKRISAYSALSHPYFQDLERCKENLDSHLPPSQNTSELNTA
UniProt P50613: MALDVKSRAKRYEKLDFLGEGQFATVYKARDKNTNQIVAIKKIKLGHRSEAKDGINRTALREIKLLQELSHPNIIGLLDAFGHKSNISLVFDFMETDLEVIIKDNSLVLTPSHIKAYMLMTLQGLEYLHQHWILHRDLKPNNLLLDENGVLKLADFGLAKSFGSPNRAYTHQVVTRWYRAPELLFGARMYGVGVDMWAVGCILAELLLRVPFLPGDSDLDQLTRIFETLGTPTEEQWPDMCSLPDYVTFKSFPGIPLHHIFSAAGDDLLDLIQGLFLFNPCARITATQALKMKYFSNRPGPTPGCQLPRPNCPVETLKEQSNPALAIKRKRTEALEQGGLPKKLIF
UniProt P50750, whole entry: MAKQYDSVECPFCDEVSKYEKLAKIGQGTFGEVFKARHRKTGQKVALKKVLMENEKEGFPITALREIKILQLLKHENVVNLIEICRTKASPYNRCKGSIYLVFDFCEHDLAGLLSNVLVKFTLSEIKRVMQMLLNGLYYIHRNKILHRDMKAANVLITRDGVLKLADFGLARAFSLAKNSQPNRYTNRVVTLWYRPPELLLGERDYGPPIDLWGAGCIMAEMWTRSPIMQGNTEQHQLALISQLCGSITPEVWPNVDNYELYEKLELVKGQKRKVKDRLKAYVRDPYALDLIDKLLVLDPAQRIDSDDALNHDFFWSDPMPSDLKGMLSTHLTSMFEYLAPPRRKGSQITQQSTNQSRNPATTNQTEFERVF
UniProt O96017, whole entry: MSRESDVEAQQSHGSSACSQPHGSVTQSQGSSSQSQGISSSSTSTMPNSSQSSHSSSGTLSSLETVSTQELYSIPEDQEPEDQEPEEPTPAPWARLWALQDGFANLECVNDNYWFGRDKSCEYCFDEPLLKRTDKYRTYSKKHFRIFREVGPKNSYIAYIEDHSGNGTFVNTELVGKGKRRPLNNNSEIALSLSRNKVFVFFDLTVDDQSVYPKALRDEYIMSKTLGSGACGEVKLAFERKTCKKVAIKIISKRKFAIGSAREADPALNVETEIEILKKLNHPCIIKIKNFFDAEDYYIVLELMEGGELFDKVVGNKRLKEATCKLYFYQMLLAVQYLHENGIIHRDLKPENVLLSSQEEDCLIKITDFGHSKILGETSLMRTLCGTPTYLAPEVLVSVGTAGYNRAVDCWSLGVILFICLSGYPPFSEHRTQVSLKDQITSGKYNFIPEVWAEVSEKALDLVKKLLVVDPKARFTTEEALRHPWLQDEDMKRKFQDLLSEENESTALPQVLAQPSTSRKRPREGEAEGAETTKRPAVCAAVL
UniProt P48729: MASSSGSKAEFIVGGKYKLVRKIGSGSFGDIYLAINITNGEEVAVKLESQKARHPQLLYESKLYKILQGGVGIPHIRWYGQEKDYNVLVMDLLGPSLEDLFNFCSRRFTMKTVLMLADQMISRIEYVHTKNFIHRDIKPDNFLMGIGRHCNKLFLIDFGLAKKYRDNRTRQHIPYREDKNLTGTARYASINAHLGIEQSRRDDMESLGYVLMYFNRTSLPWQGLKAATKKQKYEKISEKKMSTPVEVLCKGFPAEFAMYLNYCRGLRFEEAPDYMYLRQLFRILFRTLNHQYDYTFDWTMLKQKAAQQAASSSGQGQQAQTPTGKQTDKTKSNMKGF
UniProt P48730: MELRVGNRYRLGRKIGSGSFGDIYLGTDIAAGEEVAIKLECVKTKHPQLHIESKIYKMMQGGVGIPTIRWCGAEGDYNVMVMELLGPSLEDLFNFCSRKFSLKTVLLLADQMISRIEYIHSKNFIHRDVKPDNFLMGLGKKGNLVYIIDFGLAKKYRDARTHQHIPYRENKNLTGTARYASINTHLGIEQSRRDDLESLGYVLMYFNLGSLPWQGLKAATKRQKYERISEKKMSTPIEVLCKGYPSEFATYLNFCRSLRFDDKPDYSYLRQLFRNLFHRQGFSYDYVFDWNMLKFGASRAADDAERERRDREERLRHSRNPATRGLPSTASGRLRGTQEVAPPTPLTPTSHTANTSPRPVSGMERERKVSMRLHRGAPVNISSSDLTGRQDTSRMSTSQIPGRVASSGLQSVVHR
UniProt Q08345: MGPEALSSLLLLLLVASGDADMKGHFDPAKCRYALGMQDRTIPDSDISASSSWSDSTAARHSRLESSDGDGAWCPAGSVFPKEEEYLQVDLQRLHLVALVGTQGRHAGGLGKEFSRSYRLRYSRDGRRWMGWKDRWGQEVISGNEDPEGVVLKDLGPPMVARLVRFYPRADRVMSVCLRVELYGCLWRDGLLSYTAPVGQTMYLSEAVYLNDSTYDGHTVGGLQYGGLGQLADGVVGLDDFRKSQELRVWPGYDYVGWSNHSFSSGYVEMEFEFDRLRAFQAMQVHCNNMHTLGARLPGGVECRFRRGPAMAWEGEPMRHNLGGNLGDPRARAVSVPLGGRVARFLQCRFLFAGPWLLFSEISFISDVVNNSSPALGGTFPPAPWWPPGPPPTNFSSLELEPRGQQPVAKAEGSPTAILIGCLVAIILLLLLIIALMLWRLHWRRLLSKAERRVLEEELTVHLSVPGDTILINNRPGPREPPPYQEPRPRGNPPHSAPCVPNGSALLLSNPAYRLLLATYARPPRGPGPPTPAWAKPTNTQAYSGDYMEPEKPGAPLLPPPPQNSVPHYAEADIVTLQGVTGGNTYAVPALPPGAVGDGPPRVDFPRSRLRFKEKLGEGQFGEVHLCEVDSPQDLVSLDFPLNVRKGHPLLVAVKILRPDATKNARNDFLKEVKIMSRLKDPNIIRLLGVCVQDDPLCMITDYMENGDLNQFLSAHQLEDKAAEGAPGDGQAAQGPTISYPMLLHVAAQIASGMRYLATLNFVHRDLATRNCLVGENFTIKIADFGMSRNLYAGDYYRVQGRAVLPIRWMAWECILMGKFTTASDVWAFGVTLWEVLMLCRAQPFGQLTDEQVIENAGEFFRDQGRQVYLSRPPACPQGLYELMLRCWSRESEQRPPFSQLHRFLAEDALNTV
UniProt Q9Y463, whole entry, looked up: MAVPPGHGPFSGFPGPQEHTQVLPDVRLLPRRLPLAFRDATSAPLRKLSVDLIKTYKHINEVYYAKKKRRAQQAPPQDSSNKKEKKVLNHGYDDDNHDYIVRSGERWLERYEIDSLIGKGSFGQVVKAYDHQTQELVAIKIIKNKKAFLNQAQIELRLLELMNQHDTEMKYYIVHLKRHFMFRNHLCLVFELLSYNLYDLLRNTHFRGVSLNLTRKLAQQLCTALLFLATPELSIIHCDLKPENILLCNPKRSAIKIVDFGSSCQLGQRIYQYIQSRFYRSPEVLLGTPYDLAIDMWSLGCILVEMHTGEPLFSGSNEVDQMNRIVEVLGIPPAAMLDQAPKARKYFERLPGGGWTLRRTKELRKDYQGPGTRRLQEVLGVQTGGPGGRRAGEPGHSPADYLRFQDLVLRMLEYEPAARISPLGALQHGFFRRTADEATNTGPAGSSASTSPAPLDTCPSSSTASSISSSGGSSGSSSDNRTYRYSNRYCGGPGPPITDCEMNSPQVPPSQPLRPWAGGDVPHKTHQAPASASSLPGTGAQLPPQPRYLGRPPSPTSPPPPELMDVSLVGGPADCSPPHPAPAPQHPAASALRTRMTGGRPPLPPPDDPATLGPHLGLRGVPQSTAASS

Measured: kinase-Nluc reporter destabilization hit call

Cc1cc(Nc2ncc(Cl)c(Nc3ccccc3S(=O)(=O)C(C)C)n2)c(OC(C)C)cc1C1CCNCC1 [Ceritinib]
inactive: BRAF_V600E 0 | BTK 0 | CAMK2A 0 | CAMK2G 0 | CDK10 = 0 | CDK2 = 0 | CDK3 = 0 | CDK4 = 0 | CDK5 = 0 | CDK6 = 0 | CDK7 = 0 | CDK9 = 0 | CHEK2 = 0 | CSF1R 0 | CSK 0 | CSNK1A1 = 0 | CSNK1D 0 | DDR1 = 0 | DYRK1B 0 | DYRK2 = 0

COc1ccc(S(=O)(=O)N(CCO)c2ccccc2CN(C)C/C=C/c2ccc(Cl)cc2)cc1 [KN-93 (phosphate)]
inactive: BRAF_V600E 0 | BTK 0 | CAMK2A 0 | CAMK2G 0 | CDK10 = 0 | CDK2 = 0 | CDK3 = 0 | CDK4 = 0 | CDK5 = 0 | CDK6 = 0 | CDK7 = 0 | CDK9 = 0 | CHEK2 = 0 | CSF1R 0 | CSK 0 | CSNK1A1 = 0 | CSNK1D 0 | DDR1 = 0 | DYRK1B 0 | DYRK2 = 0

CNC(=O)c1cc(Oc2ccc(NC(=O)Nc3ccc(Cl)c(C(F)(F)F)c3)c(F)c2)ccn1 [Regorafenib]
inactive: BRAF_V600E 0 | BTK 0 | CAMK2A 0 | CAMK2G 0 | CDK10 = 0 | CDK2 = 0 | CDK3 = 0 | CDK4 = 0 | CDK5 = 0 | CDK6 = 0 | CDK7 = 0 | CDK9 = 0 | CHEK2 = 0 | CSF1R 0 | CSK 0 | CSNK1A1 = 0 | CSNK1D 0 | DDR1 = 0 | DYRK1B 0 | DYRK2 = 0

— the supplement of paper PMC12823440, “Inhibitors supercharge kinase turnover through native proteolytic circuits” (Nature, 2025)
